The assay deals with α-tubulin. The assay is described as follows: immunoprecipitation from C2C12 lysate with B09, western blot for α-tubulin (negative control). For orientation: Immunoblotting shows a protein as a band on a membrane.

These are yes or no findings as the source states them, for the method shown.

B1: human antibody B09 (full-length IgG) (antibody, V domains shown)
VH: QMQLVESGGRLVRPGGSLRLSCAASGFPFTSYAMNWVRQTPGKGLEWVSTITATSGKTYYADSVKGRFTISRDNSRNTLFLQMNSLRAEDTAVYYCVRGESCSGGACSDFDYWGQGALVTVSS
VL: QLVLTQPASVSGSPGQSVTISCTGTSSDIGRYNRVSWYQHHPGKAPKLILNDVTTRPSGFSNRFSGSKSGNTASLTISGLQAEDEADYSCGSYAGSYTYVFGTGTKVTVL
For the molecule B1, the binding result is listed as “no binding”.

The values above are taken from patent US20150030595A1.
